Experimental data reported in article PMC4770304.
No constants are given. Whether binding was seen depends on the method and setting. Binding seen in cells or lysates may run through a third protein. Here binding means that the protein was enriched with, or labelled near, the bait; the list need not be complete.

Sequences of proteins named here, by UniProt entry; tags and fusion partners are left off.
UniProt Q27J81: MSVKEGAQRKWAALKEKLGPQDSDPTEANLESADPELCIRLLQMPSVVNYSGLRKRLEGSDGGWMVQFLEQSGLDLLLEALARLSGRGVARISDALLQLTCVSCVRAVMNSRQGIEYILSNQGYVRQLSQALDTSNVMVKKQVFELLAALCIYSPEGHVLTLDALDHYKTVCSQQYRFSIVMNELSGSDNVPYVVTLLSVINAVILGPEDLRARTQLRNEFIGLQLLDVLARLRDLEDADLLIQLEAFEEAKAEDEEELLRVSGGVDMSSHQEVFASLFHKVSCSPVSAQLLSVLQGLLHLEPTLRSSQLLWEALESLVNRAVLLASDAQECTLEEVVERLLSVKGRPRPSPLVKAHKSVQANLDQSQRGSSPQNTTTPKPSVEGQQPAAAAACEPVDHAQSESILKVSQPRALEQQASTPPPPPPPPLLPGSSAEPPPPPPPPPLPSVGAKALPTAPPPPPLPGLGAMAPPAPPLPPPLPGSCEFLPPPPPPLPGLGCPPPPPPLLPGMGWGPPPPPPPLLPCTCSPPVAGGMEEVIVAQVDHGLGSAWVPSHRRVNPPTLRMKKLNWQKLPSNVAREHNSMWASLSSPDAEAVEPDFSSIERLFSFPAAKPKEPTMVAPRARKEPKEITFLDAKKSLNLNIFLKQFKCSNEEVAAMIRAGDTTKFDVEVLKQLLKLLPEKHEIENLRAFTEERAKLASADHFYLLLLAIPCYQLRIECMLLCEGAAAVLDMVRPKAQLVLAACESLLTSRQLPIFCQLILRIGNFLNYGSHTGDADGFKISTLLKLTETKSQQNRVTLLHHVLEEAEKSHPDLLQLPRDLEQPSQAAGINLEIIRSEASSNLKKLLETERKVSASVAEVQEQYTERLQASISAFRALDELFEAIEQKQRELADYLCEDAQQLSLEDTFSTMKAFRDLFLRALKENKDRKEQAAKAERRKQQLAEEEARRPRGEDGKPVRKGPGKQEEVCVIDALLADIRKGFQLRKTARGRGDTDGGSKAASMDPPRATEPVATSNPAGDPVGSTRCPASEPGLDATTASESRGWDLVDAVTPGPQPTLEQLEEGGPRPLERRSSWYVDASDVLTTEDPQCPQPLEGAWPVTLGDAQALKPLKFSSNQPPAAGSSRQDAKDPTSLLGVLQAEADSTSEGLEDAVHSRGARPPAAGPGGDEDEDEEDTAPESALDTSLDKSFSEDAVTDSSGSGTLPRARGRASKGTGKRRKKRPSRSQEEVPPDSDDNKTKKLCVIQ
UniProt P35080: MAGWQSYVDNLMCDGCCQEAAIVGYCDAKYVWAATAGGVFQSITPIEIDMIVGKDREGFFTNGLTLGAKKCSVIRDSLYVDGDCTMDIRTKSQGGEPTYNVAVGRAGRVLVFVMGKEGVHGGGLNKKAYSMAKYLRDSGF

Molecular target: GFP–INF2 (wild type) expressed in human podocytes (UniProt Q27J81)
Experiment: affinity purification with mass spectrometry; GFP-Trap from lysates of differentiated human podocytes transduced with GFP–INF2 or GFP lentivirus; SDS/PAGE, in-gel tryptic digestion, LC–MS/MS (Orbitrap Velos)

binding: binds
Substance: profilin 2 (from UniProt P35080 1-140)
